The target in assay [1] is protein arginine methyltransferase 5 (PRMT5), endogenous (human (endogenous in 293T)) (UniProt O14744). Nature of the assay: co-IP; extract of 293T cells (legend; the text says U2OS) expressing FLAG-LCE1C; endogenous PRMT5; precipitating antibody not stated.
Assay [2] addresses FLAG-LCE1C (late cornified envelope 1C) (UniProt Q5T751). Nature of the assay: SDS-PAGE and Western blot of cell extract; extracts of 293T cells expressing FLAG-vector alone or FLAG-LCE1C; oligomer bands assigned from a linear plot of migration distance against molecular weight. (Immunoblotting shows a protein as a band on a membrane.)
For assay [3], the target named is FLAG-PRMT5 (UniProt O14744). Briefly: co-IP; extract of 293T cells expressing Myc-LCE1C and/or FLAG-PRMT5; precipitating antibody not stated.

By UniProt entry, the sequences of proteins in these tests, tags left out.
UniProt O14744: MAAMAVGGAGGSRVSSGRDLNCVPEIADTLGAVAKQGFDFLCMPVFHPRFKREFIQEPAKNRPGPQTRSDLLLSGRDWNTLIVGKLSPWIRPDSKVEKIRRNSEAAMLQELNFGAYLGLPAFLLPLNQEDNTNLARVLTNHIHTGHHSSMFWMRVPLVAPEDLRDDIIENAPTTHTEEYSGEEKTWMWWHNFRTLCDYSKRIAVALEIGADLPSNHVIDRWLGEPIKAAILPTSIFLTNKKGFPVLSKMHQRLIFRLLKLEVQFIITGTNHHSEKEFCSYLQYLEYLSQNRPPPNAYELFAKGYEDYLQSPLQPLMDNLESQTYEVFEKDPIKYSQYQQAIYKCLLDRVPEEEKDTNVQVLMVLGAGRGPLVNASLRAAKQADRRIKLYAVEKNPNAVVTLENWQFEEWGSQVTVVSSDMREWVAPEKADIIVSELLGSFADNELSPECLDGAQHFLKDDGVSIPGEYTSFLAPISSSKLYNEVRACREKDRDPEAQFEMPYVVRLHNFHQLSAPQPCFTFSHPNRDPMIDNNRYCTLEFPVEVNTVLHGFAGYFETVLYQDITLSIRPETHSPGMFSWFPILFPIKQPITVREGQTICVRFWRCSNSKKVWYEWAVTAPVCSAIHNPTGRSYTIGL

No constants are given. Whether binding was seen depends on the method and setting. For part of these data: Binding seen in cells or lysates may run through a third protein. Some entries that bind do so weakly or less than the wild type. Where a sequence is shown, tags or fusion partners need not be part of it.

B1: FLAG-LCE1C (late cornified envelope 1C) (protein, UniProt Q5T751 1-118)
chain: MSCQQSQQQCQPPPKCTPKCPPKCPTPKCPPKCPPKCPPVSSCCSVSSGGCCGSSSGGSCGSSSGGCCSSGGGGCCLSHHRRRRSHCHRPQSSGCCSQPSGGSSCCGGGSGQHSGGCC
On to B1, for which the binding result in assay [1] is on record as “binds weakly”; in assay [2], “binds”.

B2: Myc-LCE1C (protein, UniProt Q5T751 1-118)
chain: MSCQQSQQQCQPPPKCTPKCPPKCPTPKCPPKCPPKCPPVSSCCSVSSGGCCGSSSGGSCGSSSGGCCSSGGGGCCLSHHRRRRSHCHRPQSSGCCSQPSGGSSCCGGGSGQHSGGCC
Take B2: in assay [3], the binding result is on record as “binds”.
